This note sets out measurements from article doi:10.1101/596171.

By UniProt entry, the sequences of proteins in these tests, tags left out. Where a name states a change or a piece, a line headed by the entry shows the natural chain unless it says otherwise.
UniProt A1Z7N6: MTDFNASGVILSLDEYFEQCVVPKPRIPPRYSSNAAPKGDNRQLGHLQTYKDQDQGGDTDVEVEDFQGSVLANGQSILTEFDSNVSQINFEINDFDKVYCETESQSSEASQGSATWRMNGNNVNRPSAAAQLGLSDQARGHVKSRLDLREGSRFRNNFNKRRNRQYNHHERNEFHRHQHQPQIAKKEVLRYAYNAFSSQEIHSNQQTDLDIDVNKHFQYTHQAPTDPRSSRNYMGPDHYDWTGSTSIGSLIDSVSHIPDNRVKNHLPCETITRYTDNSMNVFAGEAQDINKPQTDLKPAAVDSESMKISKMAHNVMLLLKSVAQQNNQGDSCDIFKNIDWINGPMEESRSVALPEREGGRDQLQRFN
UniProt Q27268: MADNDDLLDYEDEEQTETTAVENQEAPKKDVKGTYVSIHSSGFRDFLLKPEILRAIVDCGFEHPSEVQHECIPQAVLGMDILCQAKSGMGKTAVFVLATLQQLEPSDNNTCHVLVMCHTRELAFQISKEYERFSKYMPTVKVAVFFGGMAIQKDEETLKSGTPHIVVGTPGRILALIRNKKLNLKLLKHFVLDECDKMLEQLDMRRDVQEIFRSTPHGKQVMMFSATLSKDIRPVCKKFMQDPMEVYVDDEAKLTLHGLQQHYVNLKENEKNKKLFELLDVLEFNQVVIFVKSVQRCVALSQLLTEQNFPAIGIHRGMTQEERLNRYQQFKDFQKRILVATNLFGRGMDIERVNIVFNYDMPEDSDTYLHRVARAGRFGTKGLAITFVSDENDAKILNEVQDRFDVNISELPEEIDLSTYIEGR

Results are given in words; binding and its absence hold for the method and conditions named. In cells and extracts the contact can be indirect. A yes stands for co-enrichment or nearness to the bait. Other partners may have been found. No binding means not detected with the bait.

The target in test [1] is CG13741-LAP (Drosophila melanogaster) (UniProt A1Z7N6). In words: affinity purification with mass spectrometry.
Test [2] concerns the target CG13741-LAP (Drosophila melanogaster), A1Z7N6. In words: affinity purification with mass spectrometry. To be noted: remark: other sources report otherwise.

Turning to UAP56 (from UniProt Q27268 1-424), the binding result in test [1] is recorded as “binds”.

B1: Deadlock, Q9VIF5 1-981 (protein)
chain: MEKLDKIRMSQKLSCWQHILTTLGTSSKTEQEWNTFFKGFLESWRKPYCIQTSCDPSIPLRKELLVRPRKALQENPHGPGSTLPESPVFLEPINSTAPREHPSPSKSHSTGSTGCDPGNGERSPSVSNKNSKYKNPGNSKYAKIWKRSNNHTTSIFSKAQISKRRDKLSSTKKRPDTCAPTDDSRKNREPRACAPNKNIFKTRETNAPNLTKNSCALPNVLILSPNSASKITQRGHSVGQTQDYKASPGKIIKRVPRYSLQCLKKKTEKVHNKIMDKPKNKQQPQTPPPFLLNNEYTESSDDSDDQLPLSELSQKMKSNKLNTLFLSRNEDCSPAPEKVKLKGERPAQNKKEQLTWEPSILTNLTDLGKQVAEPLRKSVKKSAKQQKPRVRAPPQGKKTLPQLQTGLKTQDKQSTHEMISEQAKTISEASGQQTSQVQSSLSPNNIRNNSVKLISAKTLMPAQRSQDYSPNKMQVGQPLGFAIELPSPVDGKEASVEIDTQLVHTSKFLENMTRPSTVEVHKFDLMDIFMGENEKLDYEYDDDDVLSVAASWNGLDDENVPEDEPRKEAKTAEQLPKPEPSTETLKPIEKENAQKMQSIKSFQIPKLNAKNLKTQPSVMRSIYENEELEKNKVLAKPAPPSLVHQPLAESNRNQRDEATAARRAKETFPVFAPLYRVAPESAATLVSANSQQVIPQVYFSTSNQDGVNWIKDVFGIRCMQSVDNKCISINCDHTMNSLGEVQKRLMRMDEDTLLSLYRQTIRSFFLFQTYYTSFVDIFKFRNLWQYLLIMLVDCRLYKSISAPLLAHVYEALSKCGMQKEAVKRIMEHVWLPCKAHKYRDLMLTTLNILSNANWEDYCDKLTQLDKDYNFEIPHKNLITILKSSVDCSDKFANALKLITLHPNSIRTNETIMSILSNASKSYSYMHNESASASQGPPGAASFLAPPAAIQPPHTTVPNFGYLPNPSFHYSNEYAINIHNFD
On to B1, for which the binding entry in test [2] is listed as “no binding”.

B2: Cutoff (protein, UniProt Q9V629 1-384)
chain: MNSNYTILNIRAHSWAEKDNLVFPTITKPVSNGWFAWSPIGQFEPNSQKVPYVVVPPSIKFPISLRYKDSPPKLEKKPNIFLDNMLQYIESSSYMYVMVRNNQQAQLNANIVCTSEVLELMMCAPYEKKTGWSLGVTRYRNTMYICRIDVEQPDPIDQDNLKRAMQEFWLRNLRTHCVFENGIKMHQHNQSSEEHLRFHGVFSFDLNGNRVLFDSPVLAEMPSTTLNGSALSWVDLQIRPMFMSRLDWPEHNRTEALKWWVKCFLLGIESLYIARRDENAHVHNIEKTLVRDLWKSCEKDWSPTVCANFMIYLLNCISQVMAPIDCPSTVYLFQFDASQGTVSYKGLRGRNQYTFVSDWFRMMLDDHTNDMCKTPNLQTMSSIV
B2: the binding result in test [1] is recorded as “no binding”.

B3: Rhino, Q7JXA8 1-418 (protein)
chain: MSRNHQRPNLGLVDAPPNDHVEEYVVEKILGKRFVNGRPQVLVKWSGFPNENNTWEPLENVGNCMKLVSDFESEVFRLHRKAAAKSVGKSKSSPSSSGPLITENGPSSSKKTQQHSKSVQAKNTAGMSKMNQKKGKNIKKTAGKIKDIENYPKTQMPSTSQVSTDSTEVFDGNPSATTTNMIKSPRIQSLFSDLNLIEPTKDKDVGDTSLKTPPKSRRLIEFPQREDAPLSSKHVSPMLIRKESQPLQSSCTDDSDLGESSSSMSLPTVSSTSSEKSIKVTKSEPKTLGQIKFSSRSSDGGHAASSLGAPKEGDIGLDLSGSDSMDSEVESMRRCPRRKRKKTYPDWKFPEMTKPFGVNRGLDLDKILHCYQMNDDLFMFVTWKGCSSIDAVHINDIKEAYPLQIIKYFESLRIIVPK
B3: the binding result in test [2] is reported as “no binding”.
